# Assay results published in PubChem BioAssay AID1259415 (National Center for Advancing Translational Sciences (NCATS), 2018).
# About 18,000 (4.4%) of roughly 410,000 compounds were called active. The inconclusive results got no clear call from the source; some entries with a clear call stand among them for comparison. No stated cut-off is given here; in the data, active means activity change below about -60%; inconclusive means no clear call, values can overlap the other calls; inactive means above about -39%.
# Assay: qHTS Assay for inhibitors of the human cytomegalovirus (HCMV)
# Conditions: HFF cells, HCMV-luciferase reporter, 72 h; at 57.5 µM; hits give low values
# Outline: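 After 16 h attachment at 37C, HFF cells received test compound and HCMV-luciferase (1 PFU/cell); reporter luminescence read 72 h later, data normalized against buffer-only and known inhibitor Salinomycin.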
# On the % scale 0 is the no-effect control and ±100 the full control effect.
row,Structure (SMILES),"activity change, negative = inhibition"
1,CN(C)CCN(C(=O)CCS(=O)(=O)c1ccccc1)c1nc2c(F)cccc2s1,inactive: -12.3%
2,CC1Cn2c(nc(=O)c3c2NCN(CCc2ccccc2)C3)S1 (stereo not given),inactive: -36.5%
3,O=C(NCC1CC1)c1cnc(N2CCN(Cc3cccc(F)c3)C2=O)s1,active: -98.7%
4,Nc1ncnc2c1C1(CCCCC1)Cc1ccccc1-2,inconclusive: -49.3%
5,O=C1c2ccccc2C(=O)N1CCc1c[nH]c2ccccc12,inactive: -1.55%
6,Cc1ccc(-c2nc3cc(NC(=O)c4cc5ccccc5o4)ccc3o2)cc1,inactive: 34.3%
7,CC(Sc1nnc2c(n1)C1CCC2(C)C1(C)C)C(=O)Nc1ccccc1 (stereo not given),active: -60.9%
8,c1ccc(-c2cc(-c3ccccc3)[n+](-c3ccccc3)c(-c3ccccc3)c2)cc1,active: -101%
9,CSc1cccc(NC(=O)C2CCCN(c3ncnc4c3nc3n4CCCCC3)C2)c1 (stereo not given),inconclusive: -41.8%
10,N#Cc1ccc(OCC(=O)NCCCn2ccnc2)cc1,inconclusive: -43.1%
11,Cc1nn2c(NCc3cccnc3)c3c(nc2c1-c1ccccc1)CCC3,inconclusive: -45.1%
12,CS(=O)(=O)Nc1ccc2c(c1)[C@H]1C[C@H](CC(=O)NCc3cccc(F)c3)O[C@@H](CO)[C@H]1O2,inactive: 13.7%
13,Cc1cc(NC(=O)COC(=O)c2c(C)noc2C)ccc1Br,inconclusive: -41.2%
14,CS(=O)(=O)Nc1ccccc1C(=O)Nc1cc(Cl)cc(Cl)c1,active: -103%
15,COc1cccc(C(=O)NNC(=O)Cc2csc(N)n2)c1,inconclusive: -45.3%
16,Cc1cc(C)n(CCCN2CCC(C(=O)Nc3cccc(-c4cccc(F)c4)c3)CC2)n1,active: -99.8%
17,Cc1c(Nc2cc(N3CCCCCC3)c3nonc3c2[N+](=O)[O-])c(=O)n(-c2ccccc2)n1C,inconclusive: -40.5%
18,CC1=C(C(=O)Nc2ccc(Cl)cc2)C(c2ccccc2C)n2ncc(C(=O)Nc3ccc(C)cc3)c2N1 (stereo not given),inactive: -31.8%
19,COc1ccc(-c2nnc(SC)nc2-c2ccc(OC)c([N+](=O)[O-])c2)cc1[N+](=O)[O-],inconclusive: -50.7%
20,c1cc2[nH]snc2c2nc(C3CC3)nc12,inconclusive: -55.2%
21,O=C(Nc1cccc2ccccc12)c1nn(C23CC4CC(CC(C4)C2)C3)cc1[N+](=O)[O-],active: -70.9%
22,O=S(=O)(C/C(=C/CO)S(=O)(=O)c1ccccc1)c1ccccc1,active: -106%
23,O=C(NCc1ccccc1)C(=O)NCC(c1cccs1)S(=O)(=O)c1ccccc1 (stereo not given),inactive: -7.32%
24,O=C(NCc1ccccc1)c1ccc(S(=O)(=O)N2CCCCCC2)cc1,inactive: -13.4%
25,Cc1ccccc1OCCCCc1c(C)n[nH]c1C,inconclusive: -58.2%
26,CCOc1cccc(-c2c(C(=O)N/N=C/c3sccc3C)nnn2-c2nonc2N)c1,inconclusive: -57%
27,CN1CCN(CC(O)COC(c2ccccc2)c2ccccc2)CC1 (stereo not given),inconclusive: -58.5%
28,CS(=O)(=O)c1ccc(NCCc2ccc(S(N)(=O)=O)cc2)c([N+](=O)[O-])c1,inactive: -12.2%

# A few values from the list:
# Under activity change, negative = inhibition, `O=C(Nc1cccc2ccccc12)c1nn(C23CC4CC(CC(C4)C2)C3)cc1[N+](=O)[O-]` reads active: -70.9%
# Under activity change, negative = inhibition, `COc1ccc(-c2nnc(SC)nc2-c2ccc(OC)c([N+](=O)[O-])c2)cc1[N+](=O)[O-]` reads inconclusive: -50.7%

# Next compounds

row,Structure (SMILES),"activity change, negative = inhibition"
1,CCn1c(Sc2nc(C)nc3scc(-c4cccs4)c23)n[nH]c1=O,inconclusive: -50.8%
2,CCN(CC)CCCNC(=S)N1CCN(c2nc(-c3ccc(F)cc3)cs2)CC1,active: -96.7%
3,COc1ccc(/C=C(\NC(=O)c2ccccc2)C(=O)NNC(=O)CCN2CCOCC2)cc1,inconclusive: -42.5%
4,Cc1ccc(N(CC(=O)Nc2ccc(Br)cc2)S(=O)(=O)c2cccs2)cc1,inactive: -18.6%
5,Cc1ccc(C23CC4CC(CC(C(=O)N5CCOCC5)(C4)C2)C3)cc1,inconclusive: -54.3%
6,COc1ccccc1-c1cc(C(=O)Nc2cc(C)nn2-c2ccccc2)no1,inconclusive: -48.1%
7,Cc1ccc(C)c(SCC(=O)Nc2cc(S(=O)(=O)N3CCOCC3)ccc2C)c1,inconclusive: -48.6%
8,COc1ccc(-c2coc3c(C(=O)NCC(C)C)cccc23)c(C)c1,inconclusive: -49.4%
9,OC(COCc1ccc(Cl)cc1)CN1CCN(CC(O)COCc2ccc(Cl)cc2)CC1 (stereo not given),inconclusive: -44%
10,CCOC(=O)c1ccc(-n2c(C)ccc2C)cc1,inactive: 0.574%
11,Cc1ccc(N(C(=O)c2csnn2)C(C(=O)NC2CCCCC2)c2ccncc2)cc1 (stereo not given),active: -64.2%
12,Cc1cc(C(=O)N/N=C/c2ccc3c(c2)OCO3)c(C)n1-c1ccc(F)cc1,inconclusive: -57.3%
13,CCOC(=O)N1CCN(C(=O)/C=C/c2ccc([N+](=O)[O-])cc2)CC1,inconclusive: -50.7%
14,COc1ccc(NC(=O)CN2C(=O)C(c3ccccc3)=NC23CCCCCC3)cc1,inconclusive: -45.8%
15,Cc1ccc2nc(NC(=O)c3ccccc3F)sc2c1,inactive: 59.9%
16,CSc1ccc(CN(C)C(=O)c2ccc(S(=O)(=O)Nc3c(C)n(C)n(-c4ccccc4)c3=O)cc2)cc1,inconclusive: -58.7%
17,O=C(Nc1ccccc1)N1CCN(c2ccccn2)CC1,inconclusive: -50.4%
18,CC(C)c1ccc(NS(=O)(=O)c2ccc3nc(-c4ccccc4)[nH]c3c2)cc1,inactive: -7.92%
19,CC(NC(=O)C1CCC(C(C)(C)C)CC1)C(c1ccccc1)N1CCOCC1 (stereo not given),inconclusive: -40.6%
20,O=C(CSc1ccc(Cl)cc1)N1CCC(c2nc3ccccc3s2)CC1,inconclusive: -40.9%
21,N#Cc1cccc(N=Cc2c(O)ccc3ccccc23)c1,active: -61.1%
22,N#Cc1c(N)nc2c(c1-c1ccco1)CCCCC2,inactive: -9.16%
23,O=C(Nc1ccc(F)cc1)c1ccccc1CC[N+](=O)[O-],inconclusive: -40.1%
24,Clc1cccc(N/N=C(\Cc2nc3ccccc3[nH]2)c2ccccc2)c1,inactive: 8.69%
25,CCCCn1nc(C(=O)Nc2nc3c(s2)CCCC3)c2ccccc2c1=O,inconclusive: -44.4%
26,COc1ccc(C2C(C(=O)OCC3CCCO3)=C(C)NC3=C2C(=O)CC(c2ccco2)C3)cc1O (stereo not given),inactive: 16.6%
27,CC(=O)c1c(C)oc2ccc(N(C(C)=O)S(=O)(=O)c3ccc(Br)cc3)cc12,inconclusive: -45.5%
